Experimental data: PubChem BioAssay AID493014 (National Center for Advancing Translational Sciences (NCATS), 2011)
“And” between values parts separate entries of the source, which are not always exact repeats. Identical values can stand only once. The list shows a part of the results. Shown are side measurements of this screen, not its main read-out; they come without a call. Compounds called inactive in the main read-out are mostly missing here. The note in brackets gives the kind of curve behind each potency; many fits are weak.

Assay: qHTS Assay to Find Inhibitors of Chronic Active B-Cell Receptor Signaling
Conditions: ABC-DLBCL IkBa-CBG/CBR reporter, luminescence ratio (green luciferase fused to IkBa over red control in TMD8 lymphoma cells), 4 h
Method in brief: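 Concentration-response series (up to 46 uM) were applied to TMD8 dual-reporter cells for 4 h at 37C with doxycycline. Green/red ratio, after filter-overlap correction, defined %Activity; red signal alone was normalised to basal cells and zero luminescence.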

[1] = measured here: CBR red luminescence, cell number
[2] = measured here: IkBa-CBG green luminescence

Structure (SMILES)	AC50 [1]	AC50 [2]
O=c1c2ccccc2nc(SCC2CCCCO2)n1-c1ccccc1 (configuration not stated)	3.66 µM [rising, partial curve, poor fit]	–
CC(=O)C1C2c3ccccc3OC1(C)N=c1s/c(=C/c3cn(C)nc3C)c(=O)n12 (configuration not stated)	6.31 µM [falling, full curve, poor fit]	–
O=C(Oc1ccc2c(c1)CCC2)N1CCOCC1	20.6 µM [rising, partial curve, poor fit]	–
CC1(C)OC(c2ccccc2)=C/C(=C/C=C2C(=O)NC(=S)NC2=O)O1	17.8 µM [falling, single point]	–
CC(C)(C)n1cc(C(=O)c2ccccc2)cc1-c1ccccc1	7.08 µM [rising, full curve, poor fit]	–
C[C@H]1CCC[C@H](O)CCCCCc2cc(O)cc(O)c2C(=O)O1	12.6 µM [falling, partial curve]	–
O=c1oc2ccccc2n1CSC1=NCCS1	20 µM [falling, partial curve, poor fit]	–
CC(C)OCCCNC(=O)c1ccc2c(c1)NC(=O)c1ccccc1S2	22.4 µM [falling, single point]	–
O=C1NC(=O)C2(Cc3ccccc3N3CCCC32)C(=O)N1 (configuration not stated)	2.06 µM [falling, partial curve, poor fit]	–
FC(F)(F)c1cccc(-n2nnnc2C2(N3CCOCC3)CCCCC2)c1	6.31 µM [falling, single point]	–
Cc1cc(N2C(=O)CC(N3CCC(n4c(=O)[nH]c5ccccc54)CC3)C2=O)no1 (configuration not stated)	29.1 µM [rising, single point]	–
Cc1ccc(OCCOc2cccc(C=C3C(=O)NC(=O)NC3=O)c2)c(C)c1	12.6 µM [falling, partial curve]	–
CC1=CC(C)C(/C=N/N=C(N)N)C(C)C1 (configuration not stated)	35.5 µM [falling, single point]	–
CN1CCN(CCC(=O)OC2CC3CCC(C2)N3C)CC1 (configuration not stated)	23.1 µM [falling, partial curve, poor fit]	–
CC(=O)OC1(Cc2ccccc2)CN2CCC1c1ccccc12 (configuration not stated)	11.2 µM [falling, partial curve, poor fit]	–
Cc1cc(NCCN)nc2ccccc12	13 µM [falling, partial curve]	–
Cc1[nH]c2ccccc2c1C1=CCNCC1	11.2 µM [falling, single point]	–
CC(C)c1ccc(-n2c(O)c(/C=N/NC(=O)c3ccccc3O)c(=O)[nH]c2=S)cc1	0.447 µM [falling, full curve]	–
Cn1cc(C(=O)OCC(=O)NC2(C#N)CCCC2)c2ccccc21	0.517 µM [rising, full curve, poor fit]	–
Cc1cc(C)nc(NC2=NCCS2)n1	0.631 µM [rising, full curve, poor fit]	–

Structure (SMILES)	AC50 [1]	AC50 [2]
Cc1ccsc1/C=C1\SC(=S)N(CC2CCCO2)C1=O (configuration not stated)	4.47 µM [rising, partial curve, poor fit]	–
COc1ccccc1CN1CCN(C(=O)Cc2ccccc2)CC1	35.5 µM [rising, partial curve, poor fit]	–
CC(=O)c1cccc(NC2=NCC(C)S2)c1 (configuration not stated)	6.51 µM [falling, single point]	–
CCCCSC1=NN1c1nc(N)nc(C)c1CC	0.206 µM [falling, partial curve, poor fit]	–
CC(C)c1ccc(NC(=O)[C@H](Cc2c[nH]c3ccccc23)NC(=O)[C@@H]2Cc3ccccc3CN2)cc1	11.2 µM [falling, partial curve, poor fit]	–
CN(C)c1ccc(P(=O)(OCc2ccccc2)C(O)c2ccccc2F)cc1 (configuration not stated)	5.62 µM [rising, single point]	–
COc1ccc(C2SCC(=O)Nc3c2c(C)nn3-c2ccccc2)cc1 (configuration not stated)	20.6 µM [rising, single point]	–
CCOc1cc(/C=C2/C(=O)NC(=O)N(c3ccc(CC)cc3)C2=O)ccc1OC(=O)c1cccs1	35.5 µM [rising, single point]	–
O=C1/C(=C\c2cc3c(cc2Br)OCO3)N2CCC1CC2	20.6 µM [falling, single point]	–
COC(=O)C1=C(c2ccc(F)cc2OCc2ccccc2)C[C@@H]2CC[C@H]1N2C(=O)NC1Cc2ccccc2C1	0.731 µM [rising, full curve]	–
Cc1ccc(C2N3CCCN23)cc1 (configuration not stated)	3.16 µM [rising, partial curve, poor fit]	–
Cc1ccc(-c2cc(-c3ccc(C)cc3)[n+](-c3ccccc3)c(-c3ccc(C)cc3)c2)cc1	6.51 µM [falling, partial curve]	–
Clc1ccc2c(c1)C(c1ccccc1Cl)=NCc1nnc(Br)n1-2	18.4 µM [falling, single point]	23.1 µM [rising, partial curve, poor fit]
CC12CC[C@H]3[C@@H](CCC4(O)C[C@H](O)CCC34/C=N/NC(=O)c3ccccc3Cl)C1(O)CCC2C1=CC(=O)OC1 (some centres not stated)	3.16 µM [falling, full curve, poor fit]	–
COc1ccc(Cc2nccc3cc(OC)c(OC)cc23)cc1OC	11.2 µM [rising, partial curve, poor fit]	18.4 µM [falling, partial curve]
O=C(O)Cn1cc(/C=C2\C(=O)NC(=O)N(c3ccc(Br)cc3)C2=O)c2ccccc21	35.5 µM [rising, single point]	–
CC1CCC[C@H](O)CCCCCc2cc(O)cc(O)c2C(=O)O1 (some centres not stated)	11.6 µM [falling, partial curve, poor fit] and 10 µM [falling, partial curve, poor fit]	–
CN(C)CC1CCCCC1=O (configuration not stated)	35.5 µM [falling, single point]	–
Cc1nc(Cl)sc1C(=O)Nc1ccc2ccccc2c1	23.1 µM [falling, partial curve, poor fit]	–
O=C(N/N=C/c1c(O)n(CCC2=CCCCC2)c(=S)[nH]c1=O)c1ccccc1	4.61 µM [falling, partial curve]	–
